Measured values published in ChEMBL document CHEMBL1909046, “DrugMatrix in vitro pharmacology data”.

Chains of the proteins cited; added tags and fusions are not shown.
UniProt P28482, whole entry: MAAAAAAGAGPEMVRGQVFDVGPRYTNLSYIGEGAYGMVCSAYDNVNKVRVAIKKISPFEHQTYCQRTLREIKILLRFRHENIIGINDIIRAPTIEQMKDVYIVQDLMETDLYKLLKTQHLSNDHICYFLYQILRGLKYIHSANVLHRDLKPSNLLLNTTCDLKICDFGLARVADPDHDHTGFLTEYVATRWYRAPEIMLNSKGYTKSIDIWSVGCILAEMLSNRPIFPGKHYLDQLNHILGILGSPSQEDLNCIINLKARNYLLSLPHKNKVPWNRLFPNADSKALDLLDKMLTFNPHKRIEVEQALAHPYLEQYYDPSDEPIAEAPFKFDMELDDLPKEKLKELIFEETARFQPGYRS
UniProt Q16539, whole entry: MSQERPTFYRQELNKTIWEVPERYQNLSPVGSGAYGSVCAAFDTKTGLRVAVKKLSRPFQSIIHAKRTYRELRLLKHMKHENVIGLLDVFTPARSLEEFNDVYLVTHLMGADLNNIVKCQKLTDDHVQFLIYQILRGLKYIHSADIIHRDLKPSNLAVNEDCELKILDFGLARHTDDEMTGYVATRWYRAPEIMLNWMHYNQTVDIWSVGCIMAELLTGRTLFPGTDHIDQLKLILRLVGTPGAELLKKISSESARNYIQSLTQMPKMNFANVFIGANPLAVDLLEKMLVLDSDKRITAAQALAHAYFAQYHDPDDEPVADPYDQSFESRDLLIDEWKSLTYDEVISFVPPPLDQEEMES
UniProt P27361, whole entry: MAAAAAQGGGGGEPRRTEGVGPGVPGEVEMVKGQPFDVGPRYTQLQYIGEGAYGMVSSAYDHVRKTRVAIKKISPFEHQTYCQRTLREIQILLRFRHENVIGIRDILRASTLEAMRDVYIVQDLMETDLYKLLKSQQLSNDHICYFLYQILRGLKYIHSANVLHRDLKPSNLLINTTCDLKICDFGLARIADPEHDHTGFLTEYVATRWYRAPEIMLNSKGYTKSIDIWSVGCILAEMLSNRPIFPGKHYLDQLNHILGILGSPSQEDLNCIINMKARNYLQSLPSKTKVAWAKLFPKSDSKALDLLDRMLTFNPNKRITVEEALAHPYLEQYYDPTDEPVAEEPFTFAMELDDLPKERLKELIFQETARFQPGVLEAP

What was measured:
Design in all cases: species or system Escherichia coli
[1] = biological target: T1, Nitric oxide synthase, inducible (Mus musculus, UniProt P29477);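 also: inhibition of iNOS enzyme activity measured with L-arginine as substrate; in other assays of this panel Not Active means under 50% inhibition at 10 µM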
T1 sequence (P29477 whole entry): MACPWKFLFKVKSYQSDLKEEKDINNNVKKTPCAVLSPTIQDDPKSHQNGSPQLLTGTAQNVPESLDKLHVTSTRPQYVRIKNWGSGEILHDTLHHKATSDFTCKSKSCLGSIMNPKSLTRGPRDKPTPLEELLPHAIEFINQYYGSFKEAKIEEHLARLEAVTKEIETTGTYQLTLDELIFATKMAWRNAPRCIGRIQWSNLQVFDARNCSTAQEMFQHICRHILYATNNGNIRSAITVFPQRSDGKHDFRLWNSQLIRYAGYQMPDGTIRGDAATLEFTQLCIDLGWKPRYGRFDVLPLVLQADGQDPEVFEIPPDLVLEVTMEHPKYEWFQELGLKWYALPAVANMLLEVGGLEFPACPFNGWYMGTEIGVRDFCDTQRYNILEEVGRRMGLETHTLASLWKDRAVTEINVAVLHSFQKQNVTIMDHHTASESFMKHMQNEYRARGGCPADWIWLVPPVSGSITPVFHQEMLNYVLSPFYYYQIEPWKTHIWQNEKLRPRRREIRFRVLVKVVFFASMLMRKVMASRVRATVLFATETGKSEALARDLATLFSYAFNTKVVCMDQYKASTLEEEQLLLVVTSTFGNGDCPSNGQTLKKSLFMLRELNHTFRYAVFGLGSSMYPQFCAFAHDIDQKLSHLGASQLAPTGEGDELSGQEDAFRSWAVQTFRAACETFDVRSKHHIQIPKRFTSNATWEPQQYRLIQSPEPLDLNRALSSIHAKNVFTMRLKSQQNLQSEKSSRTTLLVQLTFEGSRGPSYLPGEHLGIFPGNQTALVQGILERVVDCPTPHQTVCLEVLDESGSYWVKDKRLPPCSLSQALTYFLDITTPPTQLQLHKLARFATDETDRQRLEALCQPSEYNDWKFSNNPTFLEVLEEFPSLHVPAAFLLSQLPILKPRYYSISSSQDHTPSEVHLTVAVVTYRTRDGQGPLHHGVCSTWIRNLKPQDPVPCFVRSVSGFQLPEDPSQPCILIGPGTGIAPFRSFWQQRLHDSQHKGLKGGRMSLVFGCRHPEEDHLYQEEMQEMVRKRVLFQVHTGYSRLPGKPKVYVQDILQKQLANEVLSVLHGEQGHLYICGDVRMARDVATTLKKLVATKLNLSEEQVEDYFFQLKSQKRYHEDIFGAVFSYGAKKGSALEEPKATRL

[2] = biological target: Mitogen-activated protein kinase 1 (Homo sapiens, UniProt P28482); experiment: DRUGMATRIX: Protein Serine/Threonine Kinase, ERK2 enzyme inhibition (substrate: Myelin Basic Protein); conditions: Not Active = under 50% inhibition at 10 µM
Caspase-1 = biological target: T2, Caspase-1 (Homo sapiens, UniProt P29466);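 also: Caspase-1 enzyme inhibition assay with a peptide substrate; in other assays of this panel Not Active means under 50% inhibition at 10 µM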
T2 sequence (P29466 whole entry): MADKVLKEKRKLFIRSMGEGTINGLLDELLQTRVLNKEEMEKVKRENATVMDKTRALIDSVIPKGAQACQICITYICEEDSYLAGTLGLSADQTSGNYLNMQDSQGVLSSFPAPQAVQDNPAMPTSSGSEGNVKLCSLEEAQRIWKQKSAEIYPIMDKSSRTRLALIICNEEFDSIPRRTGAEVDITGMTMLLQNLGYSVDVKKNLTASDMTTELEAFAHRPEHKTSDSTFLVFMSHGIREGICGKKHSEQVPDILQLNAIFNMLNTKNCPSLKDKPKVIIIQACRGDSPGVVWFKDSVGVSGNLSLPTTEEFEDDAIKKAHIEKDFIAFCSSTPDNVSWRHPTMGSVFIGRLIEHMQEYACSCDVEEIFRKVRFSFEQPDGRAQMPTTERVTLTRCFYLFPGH

[3] = biological target: Mitogen-activated protein kinase 14 (Homo sapiens, UniProt Q16539);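 also: inhibition of p38alpha enzyme activity in a biochemical kinase assay, with myelin basic protein serving as substrate; in other assays of this panel Not Active means under 50% inhibition at 10 µM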
[4] = biological target: Protein phosphatase 3 catalytic subunit alpha (Homo sapiens, UniProt Q08209);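 also: inhibition of calcineurin (PP2B) enzyme activity, measured with DiFMUP as the substrate; in other assays of this panel Not Active means under 50% inhibition at 10 µM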
[5] = biological target: T3, Receptor-type tyrosine-protein phosphatase C (Homo sapiens, UniProt P08575)
T3 sequence (P08575 whole entry): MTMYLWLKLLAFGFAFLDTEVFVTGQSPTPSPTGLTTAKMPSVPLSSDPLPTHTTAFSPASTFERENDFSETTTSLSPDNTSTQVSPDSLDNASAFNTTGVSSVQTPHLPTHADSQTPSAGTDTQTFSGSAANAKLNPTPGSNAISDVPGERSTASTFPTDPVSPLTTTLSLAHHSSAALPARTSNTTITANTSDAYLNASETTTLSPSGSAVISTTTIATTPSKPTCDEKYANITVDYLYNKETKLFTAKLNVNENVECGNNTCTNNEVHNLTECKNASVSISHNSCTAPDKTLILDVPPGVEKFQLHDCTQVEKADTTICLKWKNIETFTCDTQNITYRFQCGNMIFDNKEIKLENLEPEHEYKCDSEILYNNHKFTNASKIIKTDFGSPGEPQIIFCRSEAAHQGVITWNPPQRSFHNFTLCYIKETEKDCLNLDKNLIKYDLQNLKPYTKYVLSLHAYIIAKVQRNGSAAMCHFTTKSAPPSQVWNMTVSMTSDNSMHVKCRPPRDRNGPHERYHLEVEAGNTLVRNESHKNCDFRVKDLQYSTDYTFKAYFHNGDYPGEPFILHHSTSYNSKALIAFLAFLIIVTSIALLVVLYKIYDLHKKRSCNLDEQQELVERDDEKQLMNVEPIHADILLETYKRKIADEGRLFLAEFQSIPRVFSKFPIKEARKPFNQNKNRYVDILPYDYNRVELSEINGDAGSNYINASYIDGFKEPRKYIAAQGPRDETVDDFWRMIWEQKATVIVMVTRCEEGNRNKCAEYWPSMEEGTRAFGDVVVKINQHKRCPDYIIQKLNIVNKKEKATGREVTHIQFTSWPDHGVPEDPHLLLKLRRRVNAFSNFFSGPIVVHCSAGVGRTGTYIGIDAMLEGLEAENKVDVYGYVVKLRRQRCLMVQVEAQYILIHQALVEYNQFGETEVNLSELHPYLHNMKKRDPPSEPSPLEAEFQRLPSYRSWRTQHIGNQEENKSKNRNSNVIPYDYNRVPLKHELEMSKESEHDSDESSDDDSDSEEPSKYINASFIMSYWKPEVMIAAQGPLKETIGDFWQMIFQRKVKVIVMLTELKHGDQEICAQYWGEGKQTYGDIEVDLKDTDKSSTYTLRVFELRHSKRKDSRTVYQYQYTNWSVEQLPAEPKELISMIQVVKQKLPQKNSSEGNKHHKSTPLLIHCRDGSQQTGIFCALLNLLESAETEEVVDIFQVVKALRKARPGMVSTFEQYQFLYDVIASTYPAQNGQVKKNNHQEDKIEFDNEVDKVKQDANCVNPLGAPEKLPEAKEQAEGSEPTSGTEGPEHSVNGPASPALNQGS

[6] = biological target: T4, 3-hydroxy-3-methylglutaryl-coenzyme A reductase (Homo sapiens, UniProt P04035)
T4 sequence (P04035 whole entry): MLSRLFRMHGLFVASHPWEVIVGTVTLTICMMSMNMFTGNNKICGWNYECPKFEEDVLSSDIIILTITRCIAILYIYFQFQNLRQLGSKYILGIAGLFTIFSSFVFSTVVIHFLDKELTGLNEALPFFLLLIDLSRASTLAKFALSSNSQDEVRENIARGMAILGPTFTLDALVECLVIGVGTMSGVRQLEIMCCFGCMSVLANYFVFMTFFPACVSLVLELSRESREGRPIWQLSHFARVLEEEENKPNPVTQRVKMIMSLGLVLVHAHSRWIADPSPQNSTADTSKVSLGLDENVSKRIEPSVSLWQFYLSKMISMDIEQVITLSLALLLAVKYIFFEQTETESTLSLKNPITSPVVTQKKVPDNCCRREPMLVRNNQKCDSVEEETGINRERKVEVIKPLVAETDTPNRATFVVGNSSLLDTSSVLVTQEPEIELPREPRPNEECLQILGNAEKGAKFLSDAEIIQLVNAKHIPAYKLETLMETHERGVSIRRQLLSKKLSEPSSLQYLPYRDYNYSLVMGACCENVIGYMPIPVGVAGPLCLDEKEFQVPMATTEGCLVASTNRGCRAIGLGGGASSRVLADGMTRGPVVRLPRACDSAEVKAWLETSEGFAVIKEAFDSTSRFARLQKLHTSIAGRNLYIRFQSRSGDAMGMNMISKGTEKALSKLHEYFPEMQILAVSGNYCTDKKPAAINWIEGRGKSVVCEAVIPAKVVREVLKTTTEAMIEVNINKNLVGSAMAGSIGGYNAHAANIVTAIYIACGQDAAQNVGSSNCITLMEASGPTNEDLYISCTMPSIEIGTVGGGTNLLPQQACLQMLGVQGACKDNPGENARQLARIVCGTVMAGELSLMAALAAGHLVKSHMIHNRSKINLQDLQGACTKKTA

[7] = biological target: Mitogen-activated protein kinase 3 (Homo sapiens, UniProt P27361); experiment: DRUGMATRIX: Protein Serine/Threonine Kinase, ERK1 enzyme inhibition (substrate: Myelin Basic Protein); conditions: Not Active = under 50% inhibition at 10 µM

Measured: IC50

Cc1cnc(C(=O)NCCc2ccc(S(=O)(=O)NC(=O)NC3CCCCC3)cc2)cn1 [GLIPIZIDE]
Not Active: [1] | [2] | Caspase-1 | [3] | [4] | [5] | [6] | [7]
